Results from one PubChem assay

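Luminescence from an EWS-FLI1 target-promoter (NR0B1) reporter, set against a CMV-promoter reporter, two days after silencing single genes in TC32 Ewing sarcoma cells. Each siRNA was applied at 20 nM. A z-score of the log NR0B1-over-CMV signal, less the median of siRNAs with the same seed; more negative means a stronger specific loss of the NR0B1 reporter.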

This is part of the screen; most of the strongest results are not listed here. Sequences are the guide (antisense) strand, without overhang.

{"sirna": "UUUUGAGCAACGAUUAUCC", "target gene": "TMCO2", "seed-corrected z-score": "-0.13"}
{"sirna": "UGUGGUAAAACGUACAGCC", "target gene": "ZPBP2", "seed-corrected z-score": "-0.3097"}
{"sirna": "UUAUUCCCAUUUGUUGUCC", "target gene": "GLP2R", "seed-corrected z-score": "-0.06389"}
{"sirna": "UUGAGAUAUAGGACCAUUC", "target gene": "LARP4B", "seed-corrected z-score": "-0.9812"}
{"sirna": "UAUAGAGAAACGCACUAGC", "target gene": "CATSPER2", "seed-corrected z-score": "0.4329"}
{"sirna": "UGAUUUUAUACUGAGGACC", "target gene": "NOTCH2NL", "seed-corrected z-score": "0.3635"}
{"sirna": "ACGAGUAUCAUAAUCAUCG", "target gene": "YLPM1", "seed-corrected z-score": "0.7345"}
{"sirna": "UAACCGUCGGUCAUGAUGC", "target gene": "MPPED2", "seed-corrected z-score": "0.06008"}
{"sirna": "UAGCGUGAUACUUUAUGCC", "target gene": "JAZF1", "seed-corrected z-score": "0.5256"}
{"sirna": "AGAGGUGAUACAGUGAUCU", "target gene": "VDR", "seed-corrected z-score": "-0.3052"}
{"sirna": "UCUUCCACUCAUAAGGUGC", "target gene": "GGH", "seed-corrected z-score": "-0.5214"}
{"sirna": "UAUUUUGUUCAGAUCCAUG", "target gene": "CHMP4C", "seed-corrected z-score": "-0.6036"}
{"sirna": "UAGAGGAUCUCGGAGACUG", "target gene": "OR10H2", "seed-corrected z-score": "1.783"}
{"sirna": "UCAUUAGUCAGAGUUUUUC", "target gene": "B4GALT4", "seed-corrected z-score": "1.103"}
{"sirna": "UCCAUAAGAAGUAAGGACC", "target gene": "ABHD3", "seed-corrected z-score": "0.6883"}
{"sirna": "AAAGGACCAACCAUAGGAG", "target gene": "CACNG3", "seed-corrected z-score": "1.31"}
{"sirna": "UCUGACAUGAUGUACUUCC", "target gene": "TSHZ3", "seed-corrected z-score": "-0.07723"}
{"sirna": "UAGUUAUCCAAACCGGCUC", "target gene": "KIAA1210", "seed-corrected z-score": "-0.2953"}
{"sirna": "UUUGAAUAUUCAGCACUGG", "target gene": "CEPT1", "seed-corrected z-score": "0.71"}
{"sirna": "UCUGAAACAGGGUCGCUCC", "target gene": "C2orf48", "seed-corrected z-score": "-0.4522"}
{"sirna": "AGAGAUAAAAGUUCGCAUC", "target gene": "CD3E", "seed-corrected z-score": "0.3432"}
{"sirna": "UCUGUUCAAAAACCAGUCG", "target gene": "RPS18P12", "seed-corrected z-score": "-0.9518"}
{"sirna": "UCUGUUGGAAACUCGUUUC", "target gene": "AKIRIN2", "seed-corrected z-score": "-0.2563"}
{"sirna": "UUCUCCGUCAGUUUGCUGC", "target gene": "CDK18", "seed-corrected z-score": "-0.6588"}
{"sirna": "UCCCGGUCAAAGUAGAUGC", "target gene": "PISD", "seed-corrected z-score": "-0.1514"}
{"sirna": "UGUUAUUCAAUCGCAGUUC", "target gene": "SLIT1", "seed-corrected z-score": "-1.43"}
{"sirna": "UGACAUAACAGCCUAUAGC", "target gene": "OR5B17", "seed-corrected z-score": "-0.4912"}
{"sirna": "UUGCCCUCUAGCACAUAGC", "target gene": "RPS8", "seed-corrected z-score": "1.769"}

3 of the entries, repeated:

siRNA	target gene	seed-corrected z-score
UUGAGAUAUAGGACCAUUC	LARP4B	-0.9812
UAGAGGAUCUCGGAGACUG	OR10H2	1.783
UUUUGAGCAACGAUUAUCC	TMCO2	-0.13

The results are deposited in PubChem (AID1159506; NCATS, 2015).